According to the supplement of paper PMC10849652:
The list shows a part of the results.

Amino acid sequences for entries named in this document (tags omitted). A change or cut given only in a name is not applied to a line headed by its entry.
UniProt O15498: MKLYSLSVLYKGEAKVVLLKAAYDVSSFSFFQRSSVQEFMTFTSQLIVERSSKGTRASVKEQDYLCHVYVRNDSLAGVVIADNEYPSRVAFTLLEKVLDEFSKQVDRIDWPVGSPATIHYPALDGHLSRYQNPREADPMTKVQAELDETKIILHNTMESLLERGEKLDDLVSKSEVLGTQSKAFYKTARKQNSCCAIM
UniProt Q7Z739: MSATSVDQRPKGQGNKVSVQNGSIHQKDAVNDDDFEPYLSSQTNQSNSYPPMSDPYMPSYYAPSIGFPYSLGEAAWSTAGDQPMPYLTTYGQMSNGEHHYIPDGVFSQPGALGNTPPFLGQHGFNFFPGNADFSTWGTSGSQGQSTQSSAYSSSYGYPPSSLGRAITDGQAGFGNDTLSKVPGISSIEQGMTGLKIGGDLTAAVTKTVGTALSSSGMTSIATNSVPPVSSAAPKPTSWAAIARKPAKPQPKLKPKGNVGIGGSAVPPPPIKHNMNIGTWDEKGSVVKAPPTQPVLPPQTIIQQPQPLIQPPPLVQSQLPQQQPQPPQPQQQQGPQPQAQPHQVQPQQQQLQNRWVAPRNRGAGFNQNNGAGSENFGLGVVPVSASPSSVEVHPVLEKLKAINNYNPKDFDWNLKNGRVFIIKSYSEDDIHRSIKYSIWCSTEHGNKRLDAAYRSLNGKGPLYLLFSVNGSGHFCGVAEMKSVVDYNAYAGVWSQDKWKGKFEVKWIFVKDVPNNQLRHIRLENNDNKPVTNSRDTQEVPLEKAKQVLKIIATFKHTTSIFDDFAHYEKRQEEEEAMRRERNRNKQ
UniProt P54577: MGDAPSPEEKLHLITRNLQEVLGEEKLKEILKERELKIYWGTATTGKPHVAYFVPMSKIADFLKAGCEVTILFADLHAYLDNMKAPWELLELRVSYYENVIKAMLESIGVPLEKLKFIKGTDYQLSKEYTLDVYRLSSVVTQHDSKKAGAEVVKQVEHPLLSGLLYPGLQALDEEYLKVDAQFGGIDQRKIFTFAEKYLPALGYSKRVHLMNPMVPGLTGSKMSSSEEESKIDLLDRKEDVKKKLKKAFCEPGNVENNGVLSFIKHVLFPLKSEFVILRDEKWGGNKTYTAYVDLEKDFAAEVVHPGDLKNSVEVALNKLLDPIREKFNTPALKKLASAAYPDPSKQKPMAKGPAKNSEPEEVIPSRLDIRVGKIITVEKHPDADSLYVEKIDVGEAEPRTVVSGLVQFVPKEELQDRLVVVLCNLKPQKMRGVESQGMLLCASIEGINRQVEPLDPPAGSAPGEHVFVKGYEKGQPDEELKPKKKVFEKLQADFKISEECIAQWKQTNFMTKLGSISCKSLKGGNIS
UniProt Q7Z7L7: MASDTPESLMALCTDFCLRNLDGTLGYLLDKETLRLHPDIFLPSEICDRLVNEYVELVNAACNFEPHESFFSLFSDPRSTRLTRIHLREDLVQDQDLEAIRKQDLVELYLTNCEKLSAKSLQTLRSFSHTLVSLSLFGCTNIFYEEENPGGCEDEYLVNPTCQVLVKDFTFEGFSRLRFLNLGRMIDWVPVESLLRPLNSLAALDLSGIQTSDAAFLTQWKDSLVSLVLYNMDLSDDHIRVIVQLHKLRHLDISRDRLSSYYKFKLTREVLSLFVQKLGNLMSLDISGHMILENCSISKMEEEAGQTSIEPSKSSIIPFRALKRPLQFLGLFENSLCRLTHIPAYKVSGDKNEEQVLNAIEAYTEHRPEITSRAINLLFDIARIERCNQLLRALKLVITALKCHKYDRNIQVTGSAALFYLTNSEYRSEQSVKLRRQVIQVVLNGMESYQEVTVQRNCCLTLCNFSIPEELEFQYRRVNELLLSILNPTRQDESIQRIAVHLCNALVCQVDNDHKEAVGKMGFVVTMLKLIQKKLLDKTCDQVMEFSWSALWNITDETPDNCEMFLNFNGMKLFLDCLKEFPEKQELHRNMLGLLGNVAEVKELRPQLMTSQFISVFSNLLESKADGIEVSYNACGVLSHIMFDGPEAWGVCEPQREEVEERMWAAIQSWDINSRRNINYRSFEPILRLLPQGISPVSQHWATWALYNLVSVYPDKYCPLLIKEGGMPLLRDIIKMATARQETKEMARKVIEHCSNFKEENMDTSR
UniProt Q9C0B5: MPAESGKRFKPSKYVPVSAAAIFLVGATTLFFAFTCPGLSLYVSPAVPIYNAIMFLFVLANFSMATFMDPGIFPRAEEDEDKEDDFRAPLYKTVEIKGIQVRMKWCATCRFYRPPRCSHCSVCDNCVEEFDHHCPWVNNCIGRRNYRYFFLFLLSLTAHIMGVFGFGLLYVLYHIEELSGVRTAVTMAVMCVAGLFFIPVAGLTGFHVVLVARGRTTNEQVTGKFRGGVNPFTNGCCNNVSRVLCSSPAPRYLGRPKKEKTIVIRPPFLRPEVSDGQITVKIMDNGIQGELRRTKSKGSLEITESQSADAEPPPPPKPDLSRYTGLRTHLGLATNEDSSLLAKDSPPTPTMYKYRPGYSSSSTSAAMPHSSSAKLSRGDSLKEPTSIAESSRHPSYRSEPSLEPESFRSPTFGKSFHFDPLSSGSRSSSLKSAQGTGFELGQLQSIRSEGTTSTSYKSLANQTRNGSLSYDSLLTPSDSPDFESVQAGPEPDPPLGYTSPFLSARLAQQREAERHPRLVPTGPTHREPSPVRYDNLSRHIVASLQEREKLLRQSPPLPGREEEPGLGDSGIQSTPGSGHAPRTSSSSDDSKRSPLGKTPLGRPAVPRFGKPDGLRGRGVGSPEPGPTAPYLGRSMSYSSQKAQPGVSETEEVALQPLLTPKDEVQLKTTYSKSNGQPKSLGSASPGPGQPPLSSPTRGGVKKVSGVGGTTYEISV
UniProt Q9Y2Z4: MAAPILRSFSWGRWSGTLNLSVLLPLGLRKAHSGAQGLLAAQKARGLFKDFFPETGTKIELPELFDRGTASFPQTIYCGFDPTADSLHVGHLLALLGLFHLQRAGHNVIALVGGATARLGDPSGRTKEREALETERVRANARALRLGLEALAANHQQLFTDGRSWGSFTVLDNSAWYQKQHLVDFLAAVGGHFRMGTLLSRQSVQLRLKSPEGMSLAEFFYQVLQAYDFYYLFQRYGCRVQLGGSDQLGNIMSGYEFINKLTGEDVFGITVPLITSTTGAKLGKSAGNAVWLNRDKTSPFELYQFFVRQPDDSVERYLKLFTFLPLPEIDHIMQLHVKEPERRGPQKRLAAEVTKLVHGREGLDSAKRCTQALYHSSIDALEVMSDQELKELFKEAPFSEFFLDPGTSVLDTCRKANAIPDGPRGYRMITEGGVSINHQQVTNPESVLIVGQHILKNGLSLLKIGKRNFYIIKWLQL
UniProt O60293: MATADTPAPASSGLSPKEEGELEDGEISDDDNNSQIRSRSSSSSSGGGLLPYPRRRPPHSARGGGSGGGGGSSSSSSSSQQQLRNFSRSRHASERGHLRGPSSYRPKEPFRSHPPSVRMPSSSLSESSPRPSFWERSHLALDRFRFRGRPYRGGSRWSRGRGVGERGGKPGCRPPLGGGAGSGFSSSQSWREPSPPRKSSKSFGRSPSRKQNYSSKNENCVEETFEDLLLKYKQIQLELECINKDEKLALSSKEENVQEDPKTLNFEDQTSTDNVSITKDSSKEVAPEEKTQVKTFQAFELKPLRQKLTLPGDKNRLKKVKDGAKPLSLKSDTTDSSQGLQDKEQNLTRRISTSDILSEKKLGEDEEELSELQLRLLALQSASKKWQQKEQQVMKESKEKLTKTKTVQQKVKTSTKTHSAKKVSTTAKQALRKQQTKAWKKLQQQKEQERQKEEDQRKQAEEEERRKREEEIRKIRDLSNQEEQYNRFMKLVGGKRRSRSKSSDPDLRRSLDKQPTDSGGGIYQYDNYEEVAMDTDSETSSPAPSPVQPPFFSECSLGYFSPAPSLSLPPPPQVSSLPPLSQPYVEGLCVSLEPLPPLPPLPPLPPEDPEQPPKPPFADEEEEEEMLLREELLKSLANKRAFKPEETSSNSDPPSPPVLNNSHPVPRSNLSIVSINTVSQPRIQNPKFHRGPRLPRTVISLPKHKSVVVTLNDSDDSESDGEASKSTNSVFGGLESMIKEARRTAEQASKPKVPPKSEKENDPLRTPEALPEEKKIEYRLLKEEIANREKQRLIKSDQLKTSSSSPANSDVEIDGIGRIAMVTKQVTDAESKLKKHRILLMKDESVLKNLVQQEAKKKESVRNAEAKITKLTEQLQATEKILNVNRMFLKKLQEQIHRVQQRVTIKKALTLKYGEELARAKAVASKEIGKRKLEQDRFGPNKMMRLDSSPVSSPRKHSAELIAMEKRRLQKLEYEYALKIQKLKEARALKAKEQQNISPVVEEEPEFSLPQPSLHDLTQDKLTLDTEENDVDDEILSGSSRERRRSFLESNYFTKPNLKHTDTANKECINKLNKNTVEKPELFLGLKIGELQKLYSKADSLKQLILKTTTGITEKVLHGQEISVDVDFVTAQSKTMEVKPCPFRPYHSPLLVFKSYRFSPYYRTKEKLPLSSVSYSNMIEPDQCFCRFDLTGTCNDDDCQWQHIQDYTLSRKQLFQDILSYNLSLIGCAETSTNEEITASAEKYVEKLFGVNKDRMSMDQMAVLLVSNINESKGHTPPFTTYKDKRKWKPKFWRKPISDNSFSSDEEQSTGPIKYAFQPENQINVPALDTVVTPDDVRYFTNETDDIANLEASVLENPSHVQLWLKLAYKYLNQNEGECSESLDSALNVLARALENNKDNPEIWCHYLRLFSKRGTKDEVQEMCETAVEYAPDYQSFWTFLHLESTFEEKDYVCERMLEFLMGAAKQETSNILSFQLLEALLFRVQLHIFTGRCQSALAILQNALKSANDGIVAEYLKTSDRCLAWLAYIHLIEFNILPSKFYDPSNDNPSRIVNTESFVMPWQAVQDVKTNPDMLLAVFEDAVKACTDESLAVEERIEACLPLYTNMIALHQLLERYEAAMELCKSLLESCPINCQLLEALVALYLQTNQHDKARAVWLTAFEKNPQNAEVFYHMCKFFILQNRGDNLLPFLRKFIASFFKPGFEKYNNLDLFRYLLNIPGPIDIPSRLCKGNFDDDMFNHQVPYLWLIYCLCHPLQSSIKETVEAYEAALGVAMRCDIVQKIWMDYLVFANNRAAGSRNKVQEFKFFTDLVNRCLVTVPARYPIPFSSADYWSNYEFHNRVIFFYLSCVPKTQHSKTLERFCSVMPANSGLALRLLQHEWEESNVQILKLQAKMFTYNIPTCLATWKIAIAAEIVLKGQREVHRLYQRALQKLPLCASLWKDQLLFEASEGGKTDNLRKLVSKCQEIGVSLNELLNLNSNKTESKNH
UniProt Q8WV99: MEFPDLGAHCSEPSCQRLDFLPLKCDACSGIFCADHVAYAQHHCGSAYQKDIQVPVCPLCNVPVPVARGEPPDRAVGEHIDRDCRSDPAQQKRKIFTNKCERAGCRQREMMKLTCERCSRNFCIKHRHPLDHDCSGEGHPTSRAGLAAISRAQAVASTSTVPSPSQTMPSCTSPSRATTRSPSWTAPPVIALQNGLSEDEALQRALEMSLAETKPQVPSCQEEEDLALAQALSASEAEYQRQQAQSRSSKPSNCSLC
UniProt P27348: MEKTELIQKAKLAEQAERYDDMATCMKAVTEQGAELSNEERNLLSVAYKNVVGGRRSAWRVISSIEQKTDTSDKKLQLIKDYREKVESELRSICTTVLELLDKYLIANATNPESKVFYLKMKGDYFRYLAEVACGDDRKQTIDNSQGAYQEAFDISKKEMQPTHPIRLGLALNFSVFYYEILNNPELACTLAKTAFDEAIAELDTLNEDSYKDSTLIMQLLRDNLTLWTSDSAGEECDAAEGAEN
UniProt O96006: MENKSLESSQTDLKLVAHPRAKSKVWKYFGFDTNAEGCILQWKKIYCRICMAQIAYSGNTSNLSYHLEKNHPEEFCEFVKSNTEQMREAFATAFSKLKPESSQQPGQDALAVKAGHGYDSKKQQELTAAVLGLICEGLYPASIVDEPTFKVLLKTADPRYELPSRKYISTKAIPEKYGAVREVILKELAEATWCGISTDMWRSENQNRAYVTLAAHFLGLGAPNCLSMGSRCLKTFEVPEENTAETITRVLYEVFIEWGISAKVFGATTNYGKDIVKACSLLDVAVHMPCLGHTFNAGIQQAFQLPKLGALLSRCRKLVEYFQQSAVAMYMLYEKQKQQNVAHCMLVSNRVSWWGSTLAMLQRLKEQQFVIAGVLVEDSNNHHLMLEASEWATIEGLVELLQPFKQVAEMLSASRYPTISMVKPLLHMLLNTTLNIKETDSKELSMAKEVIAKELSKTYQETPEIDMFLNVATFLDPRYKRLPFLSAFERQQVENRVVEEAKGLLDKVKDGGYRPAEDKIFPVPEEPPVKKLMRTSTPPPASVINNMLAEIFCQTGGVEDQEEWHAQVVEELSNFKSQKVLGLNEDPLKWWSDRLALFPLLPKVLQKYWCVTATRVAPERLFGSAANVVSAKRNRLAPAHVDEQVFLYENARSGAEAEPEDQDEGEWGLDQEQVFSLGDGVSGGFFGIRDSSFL

Columns and labels:
Assay in all cases: log2 fold change, soluble protein after heating vs DMSO (PISA); higher = thermal stabilisation; K562 lysate, 10 uM; active = over 0.2 and 3.5 SD of the protein, either way, in both replicates (recomputed)
nilotinib = compound: Cc1cn(-c2cc(NC(=O)c3ccc(C)c(Nc4nccc(-c5cccnc5)n4)c3)cc(C(F)(F)F)c2)cn1 [nilotinib]
Summary of the method: (§1)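 K562 pellets were dounce-homogenised in PBS pH 7.4 containing 1 mM MgCl2, and the crude extract, at 1 mg/mL protein, was exposed to 10 μM compound for 30 min. Aliquots were heated for 3 min across 48°C-58°C, pooled, brought to 0.5% NP-40 at 4°C and spun at 21,000xg for 90 min, with the supernatant taken as soluble protein. TMTpro 16plex LC-MS/MS with equalised channel sums quantified that protein. Values are log-two fold changes in thermal stability relative to solvent controls, taken from duplicates.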

[1] = compound: Cc1nc(Nc2n[nH]c3c2CN(C(=O)N[C@H](CN(C)C)c2ccccc2)C3(C)C)c2sccc2n1
Summary of the method: as §1

dasatinib = compound: Cc1nc(Nc2ncc(C(=O)Nc3c(C)cccc3Cl)s2)cc(N2CCN(CCO)CC2)n1 [dasatinib]
Summary of the method: as §1

[2] = compound: Cc1ncc(-c2ccnc(Nc3ccc(S(C)(=O)=O)cc3)n2)n1C(C)C
Summary of the method: as §1

[3] = compound: Cn1cc(-c2ccc3c(c2)CCN3C(=O)Cc2cccc(C(F)(F)F)c2)c2c(N)ncnc21
Summary of the method: as §1

quisinostat = compound: Cn1cc(CNCC2CCN(c3ncc(C(=O)NO)cn3)CC2)c2ccccc21 [quisinostat]
Summary of the method: as §1

tipifarnib = compound: Cn1cncc1[C@@](N)(c1ccc(Cl)cc1)c1ccc2c(c1)c(-c1cccc(Cl)c1)cc(=O)n2C [tipifarnib]
Summary of the method: as §1

[4] = compound: NC(=O)Nc1cc(-c2cccc(F)c2)sc1C(=O)N[C@H]1CCCNC1
Summary of the method: as §1

[5] = compound: NC(=O)c1cnc(N[C@@H]2CCCC[C@@H]2N)nc1Nc1cccc(-n2nccn2)c1
Summary of the method: as §1

[6] = compound: NC1(c2ccc(-c3nc4ccn5c(=O)[nH]nc5c4cc3-c3ccccc3)cc2)CCC1
Summary of the method: as §1

[7] = compound: NCC(=O)Nc1ccc(-n2nc(C(F)(F)F)cc2-c2ccc3c(ccc4ccccc43)c2)cc1
Summary of the method: as §1

vorinostat = compound: O=C(CCCCCCC(=O)Nc1ccccc1)NO [vorinostat]
Summary of the method: as §1

silmitasertib = compound: O=C(O)c1ccc2c(c1)nc(Nc1cccc(Cl)c1)c1ccncc12 [silmitasertib]
Summary of the method: as §1

[8] = compound: O=C1NC(=O)C(c2cnc3ccccn23)=C1c1cn2c3c(cc(F)cc13)CN(C(=O)N1CCCCC1)CC2
Summary of the method: as §1

entospletinib = compound: c1cn2cc(-c3ccc4cn[nH]c4c3)nc(Nc3ccc(N4CCOCC4)cc3)c2n1 [entospletinib]
Summary of the method: as §1

Measured: log2 fold change

YKT6 (UniProt O15498)
inactive: nilotinib -0.003 | [1] 0.006 | dasatinib 0.027 | [2] -0.007 | [3] -0.002 | quisinostat 0.015 | tipifarnib 0.007 | [4] -0.016 | [5] 0.006 | [6] 0.013 | [7] 0.001 | vorinostat 0.046 | silmitasertib 0.009 | [8] -0.05 | entospletinib 0.008

ZC3H14 (UniProt Q6PJT7)
inactive: nilotinib -0.064 | [1] -0.042 | dasatinib -0.054 | [2] 0.01 | [3] -0.049 | quisinostat -0.028 | tipifarnib -0.051 | [4] 0.001 | [5] -0.009 | [6] 0.002 | [7] 0.009 | vorinostat -0.088 | silmitasertib 0.028 | [8] 0.028 | entospletinib -0.028

YTHDF3 (UniProt Q7Z739)
inactive: nilotinib -0.246 | [1] -0.038 | dasatinib 0.022 | [2] 0.014 | [3] -0.006 | quisinostat -0.06 | tipifarnib -0.311 | [4] 0.063 | [5] -0.016 | [6] -0.039 | [7] 0.064 | vorinostat 0.03 | silmitasertib -0.084 | [8] -0.169 | entospletinib 0.006

YARS (UniProt P54577)
inactive: nilotinib -0.002 | [1] 0.009 | dasatinib -0.03 | [2] 0.005 | [3] 0.008 | quisinostat -0.027 | tipifarnib 0.004 | [4] 0.018 | [5] 0.007 | [6] 0.011 | [7] 0.009 | vorinostat -0.08 | silmitasertib 0.006 | [8] 0 | entospletinib 0.018

YBX3 isoform 2 (UniProt P16989)
inactive: nilotinib -0.032 | [1] 0.013 | dasatinib 0.026 | [2] 0.108 | [3] 0.051 | quisinostat -0.047 | tipifarnib 0.041 | [4] -0.082 | [5] 0.053 | [6] 0.022 | [7] -0.059 | vorinostat 0.186 | silmitasertib 0.015 | [8] -0.056 | entospletinib 0.006

YDJC (UniProt A8MPS7)
inactive: nilotinib -0.027 | [1] 0.045 | dasatinib -0.1 | [2] -0.044 | [3] -0.02 | quisinostat -0.03 | tipifarnib -0.045 | [4] -0.001 | [5] 0.021 | [6] 0.074 | [7] 0.048 | silmitasertib 0.023 | [8] -0.051 | entospletinib 0.051
active: vorinostat -0.443

XRCC1 (UniProt P18887)
inactive: nilotinib -0.01 | [1] 0.035 | dasatinib -0.026 | [2] -0.016 | [3] 0.037 | quisinostat -0.019 | tipifarnib 0.023 | [4] 0.002 | [5] -0.004 | [6] 0.026 | [7] 0.008 | vorinostat -0.062 | silmitasertib 0.051 | [8] 0.006 | entospletinib 0.041

YOD1 (UniProt Q5VVQ6)
inactive: nilotinib 0 | [1] -0.024 | dasatinib -0.006 | [2] 0.031 | [3] 0 | quisinostat -0.018 | tipifarnib 0.002 | [4] 0.055 | [5] 0.023 | [6] -0.019 | [7] -0.003 | vorinostat -0.003 | silmitasertib 0.059 | [8] -0.043 | entospletinib -0.032

2 neighbouring entries out of the list so far, quoted:
YDJC (UniProt A8MPS7)
inactive: nilotinib -0.027 | [1] 0.045 | dasatinib -0.1 | [2] -0.044 | [3] -0.02 | quisinostat -0.03 | tipifarnib -0.045 | [4] -0.001 | [5] 0.021 | [6] 0.074 | [7] 0.048 | silmitasertib 0.023 | [8] -0.051 | entospletinib 0.051
active: vorinostat -0.443

XRCC1 (UniProt P18887)
inactive: nilotinib -0.01 | [1] 0.035 | dasatinib -0.026 | [2] -0.016 | [3] 0.037 | quisinostat -0.019 | tipifarnib 0.023 | [4] 0.002 | [5] -0.004 | [6] 0.026 | [7] 0.008 | vorinostat -0.062 | silmitasertib 0.051 | [8] 0.006 | entospletinib 0.041

Next records follow:

ZER1 (UniProt Q7Z7L7)
inactive: nilotinib 0.114 | [1] -0.027 | dasatinib -0.133 | [2] 0.034 | [3] 0.004 | quisinostat -0.166 | tipifarnib -0.023 | [4] 0.244 | [5] -0.039 | [6] -0.029 | [7] 0.165 | vorinostat -0.018 | silmitasertib -0.076 | [8] -0.068 | entospletinib -0.008

ZDHHC5 (UniProt Q9C0B5)
inactive: nilotinib -0.019 | [1] 0.104 | dasatinib 0.026 | [2] 0.045 | [3] -0.027 | quisinostat -0.021 | tipifarnib 0.006 | [4] -0.007 | [5] 0.009 | [6] 0.025 | [7] 0.005 | vorinostat 0.109 | silmitasertib 0.01 | [8] 0.009 | entospletinib -0.048

YARS2 (UniProt Q9Y2Z4)
inactive: nilotinib -0.005 | [1] -0.041 | dasatinib -0.041 | [2] 0.041 | [3] -0.002 | quisinostat -0.012 | tipifarnib -0.054 | [4] 0.031 | [5] -0.014 | [6] 0.027 | [7] -0.045 | vorinostat -0.132 | silmitasertib 0.021 | [8] 0.004 | entospletinib 0.028

ZFC3H1 (UniProt O60293)
inactive: nilotinib -0.021 | [1] -0.013 | dasatinib -0.057 | [2] -0.024 | [3] 0.03 | quisinostat -0.034 | tipifarnib 0.032 | [4] 0.068 | [5] 0.001 | [6] -0.074 | [7] 0.023 | vorinostat -0.159 | silmitasertib 0.045 | [8] 0.012 | entospletinib -0.094

ZBTB21 (UniProt Q9ULJ3)
inactive: nilotinib 0.029 | [1] -0.026 | dasatinib 0.032 | [2] -0.006 | [3] -0.016 | quisinostat 0.09 | tipifarnib 0.015 | [4] 0.028 | [5] -0.007 | [6] 0.14 | [7] -0.058 | vorinostat 0.061 | silmitasertib -0.013 | [8] -0.017 | entospletinib -0.114

XPO5 (UniProt Q9HAV4)
inactive: nilotinib -0.025 | [1] -0.016 | dasatinib -0.068 | [2] 0.013 | [3] 0.005 | quisinostat -0.092 | tipifarnib -0.015 | [4] 0.029 | [5] 0.023 | [6] -0.024 | [7] 0 | silmitasertib 0.035 | [8] 0.011 | entospletinib 0.015
active: vorinostat -0.574

ZFP91 (UniProt Q96JP5)
inactive: nilotinib -0.08 | [1] -0.004 | dasatinib 0.054 | [2] -0.014 | [3] -0.014 | quisinostat -0.002 | tipifarnib -0.021 | [4] -0.023 | [5] 0.016 | [6] -0.042 | [7] 0.002 | vorinostat 0.049 | silmitasertib 0.016 | [8] 0.073 | entospletinib 0.014

XYLB (UniProt O75191)
inactive: nilotinib 0.082 | [1] 0.024 | dasatinib 0.015 | [2] -0.027 | [3] -0.095 | quisinostat 0.024 | tipifarnib 0.07 | [4] -0.017 | [5] -0.006 | [6] -0.029 | [7] 0.12 | vorinostat -0.146 | silmitasertib 0.006 | [8] 0 | entospletinib 0.067

ZFAND2B (UniProt Q8WV99)
inactive: nilotinib -0.072 | [1] 0.056 | dasatinib 0.041 | [2] -0.019 | [3] -0.001 | quisinostat 0.011 | tipifarnib -0.003 | [4] -0.1 | [5] -0.03 | [6] 0.062 | [7] 0.07 | vorinostat -0.15 | silmitasertib 0.055 | [8] -0.057 | entospletinib -0.011

ZC3H18 (UniProt E7ERS3)
inactive: nilotinib -0.013 | [1] -0.024 | dasatinib -0.019 | [2] 0.013 | [3] 0.006 | quisinostat -0.093 | tipifarnib -0.042 | [4] -0.002 | [5] 0.01 | [6] -0.034 | [7] 0.033 | vorinostat 0.036 | silmitasertib -0.015 | [8] -0.064 | entospletinib 0

YWHAQ (UniProt P27348)
inactive: nilotinib -0.008 | [1] -0.005 | dasatinib 0.04 | [2] 0.037 | [3] 0.011 | quisinostat 0.095 | tipifarnib 0.019 | [4] -0.023 | [5] -0.035 | [6] 0.014 | [7] -0.047 | vorinostat -0.052 | silmitasertib -0.012 | [8] 0.013 | entospletinib 0.022

YLPM1 (UniProt P49750)
inactive: nilotinib -0.023 | [1] -0.192 | dasatinib 0.018 | [3] 0.021 | quisinostat -0.015 | tipifarnib -0.011 | [4] 0.033 | [5] 0.041 | [6] -0.013 | [7] 0.013 | vorinostat -0.126 | silmitasertib -0.011 | [8] 0.017 | entospletinib -0.004
active: [2] -0.384

ZBED1 (UniProt O96006)
inactive: nilotinib -0.021 | [1] -0.028 | dasatinib -0.047 | [2] 0.021 | [3] 0.025 | quisinostat 0.026 | tipifarnib -0.017 | [4] 0.055 | [5] 0.049 | [6] 0.05 | [7] -0.042 | vorinostat -0.204 | silmitasertib 0.02 | [8] -0.028 | entospletinib -0.047
